Measured values taken from PMC7522278.

The chains behind the UniProt entries cited, without tags or fusion partners. Where a name states a change or a piece, a line headed by the entry shows the natural chain unless it says otherwise.
UniProt P49366: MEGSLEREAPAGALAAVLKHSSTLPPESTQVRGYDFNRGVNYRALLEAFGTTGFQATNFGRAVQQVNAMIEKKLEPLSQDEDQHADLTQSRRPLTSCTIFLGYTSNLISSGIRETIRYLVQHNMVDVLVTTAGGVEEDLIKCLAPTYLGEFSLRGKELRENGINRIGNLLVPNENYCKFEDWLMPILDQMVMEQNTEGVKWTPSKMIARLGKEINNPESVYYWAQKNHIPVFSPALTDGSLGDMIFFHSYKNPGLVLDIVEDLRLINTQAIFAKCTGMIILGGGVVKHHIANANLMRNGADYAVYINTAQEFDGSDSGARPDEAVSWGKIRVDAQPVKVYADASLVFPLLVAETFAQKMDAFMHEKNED
UniProt P27361: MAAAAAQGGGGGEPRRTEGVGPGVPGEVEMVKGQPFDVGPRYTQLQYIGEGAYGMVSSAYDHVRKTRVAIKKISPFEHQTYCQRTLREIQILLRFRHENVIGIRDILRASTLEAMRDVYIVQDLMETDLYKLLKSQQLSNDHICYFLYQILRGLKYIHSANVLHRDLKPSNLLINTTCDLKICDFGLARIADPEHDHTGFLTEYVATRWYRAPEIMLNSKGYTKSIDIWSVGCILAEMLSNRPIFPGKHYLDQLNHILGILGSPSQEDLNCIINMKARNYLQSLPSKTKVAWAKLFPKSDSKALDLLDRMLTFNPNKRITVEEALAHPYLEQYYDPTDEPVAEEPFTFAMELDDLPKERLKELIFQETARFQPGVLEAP

Key:
[1] = molecular target: DHPS-EBM-LRRAAA (triple mutation) (human) (UniProt P49366); test: co-IP; SFB-tagged bait transiently expressed in HEK293T; lysate in NETN buffer, S protein beads 2 h at 4 °C, three washes, Western blot; also with mock- or PMA-treated cells (binding not affected)
[2] = molecular target: SFB-tagged DHPS-∆EBM (human) (UniProt P49366); test: as above

Substance: endogenous ERK1 (from UniProt P27361 1-379) (enzyme)
- binding [1]: no binding
- binding [2]: no binding

Results are given in words; binding and its absence hold for the method and conditions named. Binding seen in cells or lysates may run through a third protein.
